This passage reports IC50 results from US20220281868A1, “MACROCYCLIC DERIVATIVES AS FACTOR XIA INHIBITORS” (MEDSHINE DISCOVERY INC., priority 2019, published 2022).

Chains of the proteins cited; added tags and fusions are not shown. Residues count along the entry.
UniProt P03951, 388-625 limits assumed: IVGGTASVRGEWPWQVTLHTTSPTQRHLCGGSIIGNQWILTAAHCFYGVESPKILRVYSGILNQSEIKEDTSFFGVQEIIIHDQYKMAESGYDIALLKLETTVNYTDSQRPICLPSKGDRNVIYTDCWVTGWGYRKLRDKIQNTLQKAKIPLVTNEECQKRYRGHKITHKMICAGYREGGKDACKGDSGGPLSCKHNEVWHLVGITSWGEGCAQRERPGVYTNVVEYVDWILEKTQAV
UniProt P03951, 19-387 partner limits assumed: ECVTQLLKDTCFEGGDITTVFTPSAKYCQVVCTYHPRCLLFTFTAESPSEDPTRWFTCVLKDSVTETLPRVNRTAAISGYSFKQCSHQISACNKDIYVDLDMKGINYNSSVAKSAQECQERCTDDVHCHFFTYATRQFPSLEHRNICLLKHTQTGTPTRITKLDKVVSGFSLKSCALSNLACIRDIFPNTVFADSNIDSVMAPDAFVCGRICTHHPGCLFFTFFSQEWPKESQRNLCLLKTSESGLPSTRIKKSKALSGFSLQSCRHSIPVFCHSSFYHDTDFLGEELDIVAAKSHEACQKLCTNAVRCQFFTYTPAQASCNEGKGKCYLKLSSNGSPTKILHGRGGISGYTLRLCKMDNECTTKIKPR

Each structure is given as a SMILES string. The structures given here were assigned with low confidence; some may be wrong.

One may read the IC50 as the concentration that gives 50% inhibition.

In this assay the target is human factor XIa (Homo sapiens, UniProt P03951). The experiment in a line: Screening test of enzyme inhibitory activity on hFXIa. Particulars: read-out: hFXIa IC50; substrate S-2366/S-2306, 37° C. 10 minutes, absorbance 405 nm, pH 7.4. The protocol:
1. Screening Test of Enzyme Inhibitory Activity on hFXIa (Human Factor XIa)
Purpose of the Experiment:
Detection of the inhibitory activity of the compounds of the present disclosure on human factor XIa
1) Experimental buffer pH 7.4
100 mM Tris-HCl (Sigma, catalog number: T2663, batch number: SLBG2775)
200 mM NaCl (Sigma, catalog number: 13423, batch number: SZBB2360V)
2) Enzymes and Substrates
Enzyme, Human Factor XIa (Human Factor XIa, Abcam, Cat #ab62411): Total amount: 50 μg. Dissolved with experimental buffer and packed separately.
Substrate S-2366 (DiaPharma, catalog number: S821090): 25 mg
3) Instruments and Consumables
SpectraMax 340PC Multifunctional Microplate Reader (Molecular Devices)
384-well black transparent reaction plate (Corning Cata #3712)
Echo Liquid Workstation (Labcyte)
Echo 384-well polypropylene compound plate (Labcyte-P-05525) was used.
Echo 384 Shallow Pore Polypropylene Compound plate (Labcyte-LP-0200, 2.5-12 μL) was used.
Multidrop automatic dispenser (Thermo Scientific)
Multidrop Consumables (Thermo Scientific-24073290)
Compounds to be tested were dissolved in DMSO to form a 10 mM solution and stored in a nitrogen cabinet.
All test compounds were prepared using Echo, serially diluted and 100 nL of the compound solution was transferred to a 384-well reaction plate. Reference compounds and samples to be tested started at 200 μM (the final concentration of reaction started at 1 μM), 3-fold diluted, 10 points. High signal wells were DMSO and low signal wells were 100 μM reference compound. See Sample Distribution for sample and control distributions.
2) Human Factor XIa Enzyme Preparation
The human factor XIa enzyme was diluted to 0.5 μg/mL using experimental buffer.
3) Substrate S-2306 Preparation
A concentration of 1 mM of S-2306 was prepared with experimental buffer solution.
4) 10 μL of 0.5 μg/mL human factor XIa enzyme was added to the reaction plate using Multidrop automatic separator, and the final concentration was 5 ng/well
5) 10 μL of 1 mM S-2306 was added to the reaction plate using Multidrop automatic separator, and the final concentration was 0.5 mM.
7) The reaction plate was placed in SpectraMax 340PC and incubated at 37° C. for 10 minutes, and the absorbance was detected at 405 nm.
8) Data were analyzed using GraphPad Prism 5.0
% Inhibition rate=100%×[1−(sample reading-low signal average value)/(high signal average value-low signal average value)]
IC50 was analyzed using 4-factor linear regression:
Y=Bottom+(Top−Bottom)/(1+10^((Log IC50−X)*HillSlope))
Y was inhibition rate %, and X was the logarithm of sample concentration.
For the compound `C[C@@H]1CCCC(c2coc(-c3cc(Cl)ccc3-n3cnnn3)cc2=O)c2cc(ccn2)-c2c(cnn2C(F)F)NC1=O` (single isomer, unassigned), the IC50 stood at 5.21 nM.
With `C[C@@H]1CCCC(c2coc(-c3c(-n4cc(Cl)nn4)ccc(Cl)c3F)cc2=O)c2cc(ccn2)-c2c(cnn2C)NC1=O` (stereo partly shown), the IC50 came out at 2.9 nM.
For `C[C@@H]1CCCC(c2coc(-c3cc(Cl)ccc3-n3cc(Cl)nn3)cc2=O)c2cc(ccn2)-c2c(cnn2C(F)F)NC1=O` (single isomer, unassigned) the value was 3.34 nM; for `C[C@@H]1CCCC(c2cn(C)c(-c3cc(Cl)ccc3-n3cc(Cl)nn3)cc2=O)c2cc(ccn2)-c2c(cnn2C(F)F)NC1=O` (stereo partly shown), 9.2 nM.
